One substance from doi:10.1101/2022.08.30.505823 (bioRxiv, 2022) can be followed below.

Protein sequences, listed by entry. Tags and fused reporters are not part of them.
UniProt Q9NR09, whole entry: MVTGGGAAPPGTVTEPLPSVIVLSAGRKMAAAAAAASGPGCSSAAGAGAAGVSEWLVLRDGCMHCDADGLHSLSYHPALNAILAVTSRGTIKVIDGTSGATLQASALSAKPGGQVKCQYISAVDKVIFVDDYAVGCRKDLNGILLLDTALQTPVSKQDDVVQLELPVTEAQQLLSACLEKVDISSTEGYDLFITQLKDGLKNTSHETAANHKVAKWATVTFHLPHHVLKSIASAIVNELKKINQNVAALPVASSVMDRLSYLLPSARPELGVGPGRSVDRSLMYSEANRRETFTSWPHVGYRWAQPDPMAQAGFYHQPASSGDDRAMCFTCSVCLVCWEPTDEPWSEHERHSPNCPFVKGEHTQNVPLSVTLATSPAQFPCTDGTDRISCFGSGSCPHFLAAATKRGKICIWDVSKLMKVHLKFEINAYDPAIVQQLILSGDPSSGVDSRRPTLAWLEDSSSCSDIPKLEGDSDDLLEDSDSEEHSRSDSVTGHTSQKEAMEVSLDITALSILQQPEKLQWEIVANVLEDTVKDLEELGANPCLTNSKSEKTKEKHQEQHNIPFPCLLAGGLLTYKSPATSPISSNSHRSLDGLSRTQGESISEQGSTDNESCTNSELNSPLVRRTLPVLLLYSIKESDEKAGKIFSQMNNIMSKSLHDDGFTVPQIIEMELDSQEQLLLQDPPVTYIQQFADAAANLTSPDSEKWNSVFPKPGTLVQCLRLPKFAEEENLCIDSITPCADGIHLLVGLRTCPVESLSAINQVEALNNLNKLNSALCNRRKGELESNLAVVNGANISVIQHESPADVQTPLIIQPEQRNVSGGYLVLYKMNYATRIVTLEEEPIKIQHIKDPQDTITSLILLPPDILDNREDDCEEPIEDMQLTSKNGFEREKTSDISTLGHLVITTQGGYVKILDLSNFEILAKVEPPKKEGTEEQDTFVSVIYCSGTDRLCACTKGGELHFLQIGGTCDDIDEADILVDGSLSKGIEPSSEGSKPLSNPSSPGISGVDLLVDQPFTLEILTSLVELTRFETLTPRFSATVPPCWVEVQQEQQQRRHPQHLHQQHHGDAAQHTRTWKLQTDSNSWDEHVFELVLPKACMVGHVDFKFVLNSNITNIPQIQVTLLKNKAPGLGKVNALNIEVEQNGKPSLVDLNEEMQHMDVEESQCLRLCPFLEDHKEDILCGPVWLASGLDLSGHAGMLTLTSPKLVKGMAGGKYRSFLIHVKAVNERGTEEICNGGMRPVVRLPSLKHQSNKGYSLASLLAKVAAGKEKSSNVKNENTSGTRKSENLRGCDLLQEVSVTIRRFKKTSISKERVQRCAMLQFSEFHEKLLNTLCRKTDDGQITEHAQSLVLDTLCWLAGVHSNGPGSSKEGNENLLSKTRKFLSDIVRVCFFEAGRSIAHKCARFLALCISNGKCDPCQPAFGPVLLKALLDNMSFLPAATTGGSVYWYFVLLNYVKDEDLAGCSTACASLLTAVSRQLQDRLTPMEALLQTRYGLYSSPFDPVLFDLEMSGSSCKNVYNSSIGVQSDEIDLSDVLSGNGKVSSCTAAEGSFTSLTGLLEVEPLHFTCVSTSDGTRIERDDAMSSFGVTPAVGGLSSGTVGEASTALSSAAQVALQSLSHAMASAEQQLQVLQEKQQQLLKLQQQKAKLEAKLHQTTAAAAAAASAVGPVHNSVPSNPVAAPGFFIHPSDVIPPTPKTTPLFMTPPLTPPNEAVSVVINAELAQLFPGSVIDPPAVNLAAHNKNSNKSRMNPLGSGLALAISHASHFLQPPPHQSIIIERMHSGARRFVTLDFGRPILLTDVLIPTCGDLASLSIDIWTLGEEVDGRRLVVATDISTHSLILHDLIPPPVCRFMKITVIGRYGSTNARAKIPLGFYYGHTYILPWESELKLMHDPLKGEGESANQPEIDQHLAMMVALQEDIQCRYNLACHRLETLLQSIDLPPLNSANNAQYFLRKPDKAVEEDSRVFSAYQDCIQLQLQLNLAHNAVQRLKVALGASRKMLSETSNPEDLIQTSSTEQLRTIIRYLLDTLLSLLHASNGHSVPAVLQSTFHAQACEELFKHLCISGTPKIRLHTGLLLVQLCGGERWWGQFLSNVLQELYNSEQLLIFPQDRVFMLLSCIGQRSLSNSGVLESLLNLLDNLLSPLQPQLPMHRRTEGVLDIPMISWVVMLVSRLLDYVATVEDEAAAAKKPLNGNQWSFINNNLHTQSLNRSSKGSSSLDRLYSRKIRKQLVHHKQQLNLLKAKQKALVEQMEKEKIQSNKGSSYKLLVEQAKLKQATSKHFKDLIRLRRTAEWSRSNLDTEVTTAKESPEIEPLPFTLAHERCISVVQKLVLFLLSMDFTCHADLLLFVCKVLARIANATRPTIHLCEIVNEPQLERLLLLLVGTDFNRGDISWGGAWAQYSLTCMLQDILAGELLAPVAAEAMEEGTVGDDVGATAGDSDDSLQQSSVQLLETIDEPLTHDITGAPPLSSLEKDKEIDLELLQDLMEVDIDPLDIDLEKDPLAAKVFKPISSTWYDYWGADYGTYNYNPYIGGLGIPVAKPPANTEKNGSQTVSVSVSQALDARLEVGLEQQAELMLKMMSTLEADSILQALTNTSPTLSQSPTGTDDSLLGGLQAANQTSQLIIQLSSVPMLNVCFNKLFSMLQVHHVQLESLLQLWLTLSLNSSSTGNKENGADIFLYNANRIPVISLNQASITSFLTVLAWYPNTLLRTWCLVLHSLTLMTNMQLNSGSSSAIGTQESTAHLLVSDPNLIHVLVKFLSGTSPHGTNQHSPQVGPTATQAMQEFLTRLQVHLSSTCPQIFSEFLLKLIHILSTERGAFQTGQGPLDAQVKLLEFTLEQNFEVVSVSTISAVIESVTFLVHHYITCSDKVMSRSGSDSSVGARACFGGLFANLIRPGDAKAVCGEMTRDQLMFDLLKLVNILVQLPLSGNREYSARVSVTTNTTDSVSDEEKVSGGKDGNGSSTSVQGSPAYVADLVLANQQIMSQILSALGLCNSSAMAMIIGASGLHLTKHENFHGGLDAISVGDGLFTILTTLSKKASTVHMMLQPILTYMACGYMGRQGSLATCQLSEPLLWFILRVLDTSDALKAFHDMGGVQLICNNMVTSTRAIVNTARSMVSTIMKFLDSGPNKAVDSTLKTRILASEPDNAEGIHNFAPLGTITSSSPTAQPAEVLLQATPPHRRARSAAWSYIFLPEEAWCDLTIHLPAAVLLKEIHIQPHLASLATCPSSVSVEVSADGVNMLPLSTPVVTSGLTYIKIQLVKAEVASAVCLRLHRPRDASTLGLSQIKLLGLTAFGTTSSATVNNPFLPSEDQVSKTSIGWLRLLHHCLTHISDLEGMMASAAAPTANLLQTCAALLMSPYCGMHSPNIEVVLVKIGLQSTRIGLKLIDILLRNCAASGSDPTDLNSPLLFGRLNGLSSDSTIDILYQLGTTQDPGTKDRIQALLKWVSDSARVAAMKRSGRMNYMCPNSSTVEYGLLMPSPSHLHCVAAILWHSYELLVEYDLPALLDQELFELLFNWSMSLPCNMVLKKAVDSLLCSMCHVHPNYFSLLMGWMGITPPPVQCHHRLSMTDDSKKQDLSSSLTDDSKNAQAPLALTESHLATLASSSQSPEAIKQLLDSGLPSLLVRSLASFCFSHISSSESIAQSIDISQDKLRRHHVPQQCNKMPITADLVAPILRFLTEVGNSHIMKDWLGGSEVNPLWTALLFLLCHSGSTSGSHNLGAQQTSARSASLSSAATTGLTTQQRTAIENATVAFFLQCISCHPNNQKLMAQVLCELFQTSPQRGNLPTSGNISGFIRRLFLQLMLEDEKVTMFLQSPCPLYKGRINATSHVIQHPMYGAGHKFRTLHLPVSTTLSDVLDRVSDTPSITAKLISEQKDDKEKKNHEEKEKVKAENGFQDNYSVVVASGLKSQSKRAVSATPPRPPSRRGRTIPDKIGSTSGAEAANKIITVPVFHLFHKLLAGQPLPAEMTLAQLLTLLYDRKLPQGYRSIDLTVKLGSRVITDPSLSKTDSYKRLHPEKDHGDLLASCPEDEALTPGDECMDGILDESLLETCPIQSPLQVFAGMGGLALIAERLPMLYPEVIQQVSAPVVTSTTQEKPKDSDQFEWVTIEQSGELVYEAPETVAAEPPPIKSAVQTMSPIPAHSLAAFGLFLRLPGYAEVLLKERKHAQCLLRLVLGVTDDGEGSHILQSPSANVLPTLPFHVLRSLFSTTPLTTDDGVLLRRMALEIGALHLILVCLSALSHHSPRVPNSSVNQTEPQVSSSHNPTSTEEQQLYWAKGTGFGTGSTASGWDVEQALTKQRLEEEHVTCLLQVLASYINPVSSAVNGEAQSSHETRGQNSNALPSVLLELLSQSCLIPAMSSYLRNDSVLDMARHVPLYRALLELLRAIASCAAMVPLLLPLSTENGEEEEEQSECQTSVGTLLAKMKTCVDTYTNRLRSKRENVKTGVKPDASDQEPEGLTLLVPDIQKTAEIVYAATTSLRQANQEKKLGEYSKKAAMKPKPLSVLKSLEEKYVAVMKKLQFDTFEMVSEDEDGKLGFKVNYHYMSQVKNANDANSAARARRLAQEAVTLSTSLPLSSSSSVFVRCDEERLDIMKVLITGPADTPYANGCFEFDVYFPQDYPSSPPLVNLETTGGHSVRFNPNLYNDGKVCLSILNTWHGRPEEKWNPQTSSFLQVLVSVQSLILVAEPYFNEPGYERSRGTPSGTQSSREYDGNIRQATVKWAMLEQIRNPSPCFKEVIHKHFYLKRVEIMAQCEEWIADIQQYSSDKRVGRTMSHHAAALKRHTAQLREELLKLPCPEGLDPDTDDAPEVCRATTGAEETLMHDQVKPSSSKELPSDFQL

Assay [1] deals with BIRC6 (human, wild type, recombinant) (human) (UniProt Q9NR09). The assay can be described thus: cryo-EM structure.
Assay [2] shares this target. The assay can be described thus: cross-linking.

These are yes or no findings as the source states them, for the method shown. A result given as binding can be weak or reduced; the word gives no strength.

As to SMAC (from UniProt Q9NR28), the binding entry in assay [1] and in assay [2] was “binds” each time.
